The record followed here is US20030103978A1.

Positions count from the first letter of the chain named. Results are given in words; binding and its absence hold for the method and conditions named. Some binding calls cover weakened binding; strength is not graded here.

Assay [1] has as its target T1, human OPGbp[143-317] (human) (UniProt O14788).
T1 sequence (looked up): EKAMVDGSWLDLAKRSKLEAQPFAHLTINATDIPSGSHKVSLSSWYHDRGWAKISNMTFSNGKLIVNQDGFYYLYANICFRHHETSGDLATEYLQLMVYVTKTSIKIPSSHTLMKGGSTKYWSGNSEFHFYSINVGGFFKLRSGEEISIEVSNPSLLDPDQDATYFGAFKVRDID
Kind of assay: phage ELISA on plated OPGbp[143-317]. (In an ELISA, binding on a coated surface is turned into a signal by an enzyme label.)

In assay [2] the target is T1, human OPGbp[143-317] (human). Kind of assay: FRET competition assay: Fab (preparation B, TBS) preincubated with Eu-labelled OPGbp[143-317]; blocked partner: sODAR-Fc detected with anti-human Fc-APC; ratio 665 nm/620 nm against Conc (nM), log axis.
Assay [3] has the same target. Kind of assay: phage ELISA: Fab-displaying phage titrated (ul phage addition/well, log axis 0.1-100) on plated human OPGbp[143-317], anti-M13-HRP and ABTS, A405 nm, single points.

B1: Fab “AT” (Fab, V domains shown)
VH: QVQLVQSGAEVRKPGASVKVSCKASGYDFSNYAIHWVRQAPGQRLEWMGWINAGNGNTKFSQKFQGRITVTRDTAASTAYMELRSLRSEDTAVYYCARDSSNMVRGIIIAYYFDYWGQGTLVTVSS
VL: EIVMTQSPSSLSASVGDRVTITCRASQSISRYLNWYQLKPGKAPRLLIYGASSLQSGVPSRFSGSGSGAEFTLTISSLQPEDIATYYCQHTRAFGQGTKVEIKR
Turning to B1, the binding entry in assay [1], in assay [2] and in assay [3] was “binds” each time.

B2: Fab “Y” (Fab, V domains shown)
VH: B1 VH with Q1E
VL: EIVLTQSPATLSFSPGERATLSCRASQSVGSYLAWYQQRPGQAPRPLIYDATNRATGIPTRFSGSGSGTDFTLTISSLEPEDFATYYCQHRRTFGRGTKLEIKR
Take B2: the binding entry in assay [1], in assay [2] and in assay [3] was “binds” throughout.

B3: Fab “S” (Fab, V domains shown)
VH: EVQLLESGGGLVQPGRSLRLSCAASGFTFDDYAMHWVRQAPGKGLEWVSGISWNSGRIGYADSVKGRFTISRDNAKNSLYLQMNSLRPEDTAFYYCAKGGSTSARYSSGWYYWGQGTLVTVSS
VL: QSVLTQPPSVSVSPGQTATITCSGDALPKQYVYWYRQKPGQAPLLVIYEDSERPSGIPERFSGSSSGTEVTLSISGVQAEDEADYYCQSTDSSGTYVVFGGGTKLTVLS
Take B3: the binding entry in assay [1] and in assay [3] was “binds” each time.
